Experimental data from publication PMC13543948, “SNX-BAR proteins 5 and 6 are required for NCOA7-AS antiviral activity against influenza A virus” (The Journal of Biological Chemistry, 2026).

Protein sequences, listed by entry. Tags and fused reporters are not part of them.
UniProt Q13596: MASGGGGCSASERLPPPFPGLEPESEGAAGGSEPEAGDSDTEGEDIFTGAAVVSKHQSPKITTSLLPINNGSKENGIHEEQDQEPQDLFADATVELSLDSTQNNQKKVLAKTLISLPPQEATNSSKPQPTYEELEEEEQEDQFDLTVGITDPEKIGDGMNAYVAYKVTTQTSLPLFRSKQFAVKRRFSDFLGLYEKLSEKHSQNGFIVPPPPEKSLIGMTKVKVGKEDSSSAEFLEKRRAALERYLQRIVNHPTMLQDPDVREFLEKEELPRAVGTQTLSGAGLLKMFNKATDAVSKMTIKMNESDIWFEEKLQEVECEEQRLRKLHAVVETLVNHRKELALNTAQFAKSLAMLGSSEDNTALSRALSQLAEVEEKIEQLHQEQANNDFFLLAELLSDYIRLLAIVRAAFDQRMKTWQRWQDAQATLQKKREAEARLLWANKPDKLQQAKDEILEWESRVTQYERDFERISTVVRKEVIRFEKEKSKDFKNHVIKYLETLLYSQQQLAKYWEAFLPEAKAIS

Molecular target: T1, 3xFLAG-tagged NCOA7-AS, stably expressed in U87-MG cells (human) (UniProt Q8NI08)
T1 sequence: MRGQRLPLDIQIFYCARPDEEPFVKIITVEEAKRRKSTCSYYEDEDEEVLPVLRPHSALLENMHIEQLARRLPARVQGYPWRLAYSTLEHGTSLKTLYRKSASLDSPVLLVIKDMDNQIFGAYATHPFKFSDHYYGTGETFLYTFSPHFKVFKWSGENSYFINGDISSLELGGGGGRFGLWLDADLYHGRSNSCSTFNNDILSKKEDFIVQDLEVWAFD
Experiment: affinity purification with mass spectrometry; 3xFLAG-NCOA7-AS stably expressed in U87-MG cells, FLAG immunoprecipitation, complexes analysed by mass spectrometry against a control immunoprecipitation; three independent experiments

**Q.** For “sorting nexin 1 (SNX1), endogenous in U87-MG cells (from UniProt Q13596 1-522)”, which binding is on record?
**A.** Its binding is “binds”.

These are yes or no findings as the source states them, for the method shown. Binding seen in cells or lysates may run through a third protein. These calls come from enrichment with a bait or labelling near it, and not all partners need be listed. Where a sequence is shown, tags or fusion partners need not be part of it.
